This assay concerns the target tau in the hippocampus of P301S mice (not stated (MAPT P301S transgene or endogenous mouse tau)) (UniProt P10636). The assay can be described thus: co-IP; hippocampal lysate of P301S mice; 2 mg protein with 4 ug primary antibody overnight at 4 °C, Protein A + G agarose 4 h, three washes, Western blot. Background: Immunoblotting shows a protein as a band on a membrane.

Sequences of proteins named here, by UniProt entry; tags and fusion partners are left off. A change or cut given only in a name is not applied to a line headed by its entry.
UniProt P10636: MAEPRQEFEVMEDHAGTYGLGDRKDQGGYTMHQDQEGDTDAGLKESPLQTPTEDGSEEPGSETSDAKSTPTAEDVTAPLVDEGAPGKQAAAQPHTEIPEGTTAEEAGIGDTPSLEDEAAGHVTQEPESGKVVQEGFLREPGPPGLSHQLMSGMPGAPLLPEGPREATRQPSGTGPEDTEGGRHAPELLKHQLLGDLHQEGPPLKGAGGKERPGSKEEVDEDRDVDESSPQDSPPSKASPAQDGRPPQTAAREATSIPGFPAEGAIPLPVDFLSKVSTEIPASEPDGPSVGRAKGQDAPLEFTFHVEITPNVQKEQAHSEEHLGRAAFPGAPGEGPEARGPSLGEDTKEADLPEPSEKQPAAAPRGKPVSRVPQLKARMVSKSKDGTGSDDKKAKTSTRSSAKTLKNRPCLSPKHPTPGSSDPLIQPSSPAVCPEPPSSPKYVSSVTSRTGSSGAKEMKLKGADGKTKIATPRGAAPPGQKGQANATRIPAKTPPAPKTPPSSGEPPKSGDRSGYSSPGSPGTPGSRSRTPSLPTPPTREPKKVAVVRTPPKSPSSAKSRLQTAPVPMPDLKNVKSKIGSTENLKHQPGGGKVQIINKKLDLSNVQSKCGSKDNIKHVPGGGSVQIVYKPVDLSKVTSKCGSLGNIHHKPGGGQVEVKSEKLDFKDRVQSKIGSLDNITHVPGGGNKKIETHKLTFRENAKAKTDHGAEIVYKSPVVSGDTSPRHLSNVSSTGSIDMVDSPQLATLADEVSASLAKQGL
UniProt P70398: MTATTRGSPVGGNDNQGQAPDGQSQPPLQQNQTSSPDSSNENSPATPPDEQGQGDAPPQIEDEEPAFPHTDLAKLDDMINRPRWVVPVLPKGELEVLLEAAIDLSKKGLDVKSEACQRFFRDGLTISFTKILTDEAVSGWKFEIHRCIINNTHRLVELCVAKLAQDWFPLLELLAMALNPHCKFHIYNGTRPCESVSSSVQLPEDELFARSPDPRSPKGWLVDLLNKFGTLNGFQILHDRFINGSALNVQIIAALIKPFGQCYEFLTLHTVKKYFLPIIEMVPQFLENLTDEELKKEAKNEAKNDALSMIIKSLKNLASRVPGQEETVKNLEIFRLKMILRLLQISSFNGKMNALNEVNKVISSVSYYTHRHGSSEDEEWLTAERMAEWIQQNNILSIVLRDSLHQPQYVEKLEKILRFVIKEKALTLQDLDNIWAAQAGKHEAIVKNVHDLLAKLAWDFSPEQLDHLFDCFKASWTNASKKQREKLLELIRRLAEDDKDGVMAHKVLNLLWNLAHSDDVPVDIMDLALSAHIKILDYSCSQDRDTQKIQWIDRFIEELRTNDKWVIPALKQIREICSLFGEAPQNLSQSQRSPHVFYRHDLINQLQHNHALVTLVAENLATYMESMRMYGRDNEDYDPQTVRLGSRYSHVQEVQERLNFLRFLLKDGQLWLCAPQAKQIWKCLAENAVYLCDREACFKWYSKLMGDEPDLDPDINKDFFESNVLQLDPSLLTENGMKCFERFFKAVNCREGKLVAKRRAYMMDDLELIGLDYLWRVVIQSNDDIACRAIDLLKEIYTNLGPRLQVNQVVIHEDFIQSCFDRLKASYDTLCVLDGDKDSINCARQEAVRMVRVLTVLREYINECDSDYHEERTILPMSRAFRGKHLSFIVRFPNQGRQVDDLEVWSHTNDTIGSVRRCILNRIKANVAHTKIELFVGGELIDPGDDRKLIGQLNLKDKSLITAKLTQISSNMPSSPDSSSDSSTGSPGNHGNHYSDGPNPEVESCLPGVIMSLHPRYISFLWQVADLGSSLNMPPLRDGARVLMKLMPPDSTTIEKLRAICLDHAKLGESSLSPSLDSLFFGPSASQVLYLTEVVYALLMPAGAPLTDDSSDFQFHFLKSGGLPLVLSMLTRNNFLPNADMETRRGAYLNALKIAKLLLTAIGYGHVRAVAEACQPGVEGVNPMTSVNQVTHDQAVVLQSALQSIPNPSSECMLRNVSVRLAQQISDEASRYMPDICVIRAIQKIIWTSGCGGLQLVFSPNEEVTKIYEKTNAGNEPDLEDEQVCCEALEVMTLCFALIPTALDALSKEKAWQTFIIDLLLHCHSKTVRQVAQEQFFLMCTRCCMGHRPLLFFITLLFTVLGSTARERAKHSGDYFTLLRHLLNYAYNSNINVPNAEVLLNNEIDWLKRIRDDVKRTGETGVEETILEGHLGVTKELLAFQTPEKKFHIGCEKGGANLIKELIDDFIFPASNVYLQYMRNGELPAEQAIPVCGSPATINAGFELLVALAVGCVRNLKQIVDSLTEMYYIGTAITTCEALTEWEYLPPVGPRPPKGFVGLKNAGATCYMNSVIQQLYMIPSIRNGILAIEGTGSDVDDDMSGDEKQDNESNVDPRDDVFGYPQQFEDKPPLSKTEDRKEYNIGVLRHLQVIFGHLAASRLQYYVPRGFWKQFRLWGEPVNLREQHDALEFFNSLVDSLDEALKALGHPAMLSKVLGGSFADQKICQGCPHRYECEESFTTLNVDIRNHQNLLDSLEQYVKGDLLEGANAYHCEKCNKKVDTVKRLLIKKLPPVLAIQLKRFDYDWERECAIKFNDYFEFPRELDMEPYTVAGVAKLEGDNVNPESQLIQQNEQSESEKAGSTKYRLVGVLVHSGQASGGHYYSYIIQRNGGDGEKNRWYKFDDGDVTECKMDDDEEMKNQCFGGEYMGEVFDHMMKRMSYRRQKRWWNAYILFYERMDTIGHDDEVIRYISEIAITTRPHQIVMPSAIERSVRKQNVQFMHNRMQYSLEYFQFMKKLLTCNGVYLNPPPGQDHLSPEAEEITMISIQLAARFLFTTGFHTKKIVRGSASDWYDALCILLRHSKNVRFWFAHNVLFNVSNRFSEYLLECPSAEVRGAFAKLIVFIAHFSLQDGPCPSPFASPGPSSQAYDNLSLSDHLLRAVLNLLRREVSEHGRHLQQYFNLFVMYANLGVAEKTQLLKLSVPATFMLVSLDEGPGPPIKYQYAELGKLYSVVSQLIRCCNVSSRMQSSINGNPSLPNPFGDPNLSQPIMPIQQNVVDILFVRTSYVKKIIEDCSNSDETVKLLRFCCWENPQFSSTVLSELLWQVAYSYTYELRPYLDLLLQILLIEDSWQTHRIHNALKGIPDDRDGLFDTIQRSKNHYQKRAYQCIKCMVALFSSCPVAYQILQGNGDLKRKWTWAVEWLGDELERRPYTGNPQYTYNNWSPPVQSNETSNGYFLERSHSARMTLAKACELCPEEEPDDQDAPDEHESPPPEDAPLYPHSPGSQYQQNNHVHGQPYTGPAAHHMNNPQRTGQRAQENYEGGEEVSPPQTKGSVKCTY

Results are given in words; binding and its absence hold for the method and conditions named. Binding seen in cells or lysates may run through a third protein. A result given as binding can be weak or reduced; the word gives no strength.

Turning to “USP9X (ubiquitin specific peptidase 9, X-linked), endogenous in mouse hippocampus (from UniProt P70398 1-2559) (enzyme)”, the binding entry is reported as “binds”.

Source of the values: article PMC11515493.
